Laboratory results taken from paper PMC4317497.
Residue numbers refer to the chain shown, from its start. Like-named read-outs stand apart in the source and are kept apart here. Results are given in words; binding and its absence hold for the method and conditions named. Binding seen in cells or lysates may run through a third protein. These calls come from enrichment with a bait or labelling near it, and not all partners need be listed. Sequences can lack the tags named with a protein. Values belong to the molecule of their own block, whether it stands above or below them.

The chains behind the UniProt entries cited, without tags or fusion partners.
UniProt Q92608: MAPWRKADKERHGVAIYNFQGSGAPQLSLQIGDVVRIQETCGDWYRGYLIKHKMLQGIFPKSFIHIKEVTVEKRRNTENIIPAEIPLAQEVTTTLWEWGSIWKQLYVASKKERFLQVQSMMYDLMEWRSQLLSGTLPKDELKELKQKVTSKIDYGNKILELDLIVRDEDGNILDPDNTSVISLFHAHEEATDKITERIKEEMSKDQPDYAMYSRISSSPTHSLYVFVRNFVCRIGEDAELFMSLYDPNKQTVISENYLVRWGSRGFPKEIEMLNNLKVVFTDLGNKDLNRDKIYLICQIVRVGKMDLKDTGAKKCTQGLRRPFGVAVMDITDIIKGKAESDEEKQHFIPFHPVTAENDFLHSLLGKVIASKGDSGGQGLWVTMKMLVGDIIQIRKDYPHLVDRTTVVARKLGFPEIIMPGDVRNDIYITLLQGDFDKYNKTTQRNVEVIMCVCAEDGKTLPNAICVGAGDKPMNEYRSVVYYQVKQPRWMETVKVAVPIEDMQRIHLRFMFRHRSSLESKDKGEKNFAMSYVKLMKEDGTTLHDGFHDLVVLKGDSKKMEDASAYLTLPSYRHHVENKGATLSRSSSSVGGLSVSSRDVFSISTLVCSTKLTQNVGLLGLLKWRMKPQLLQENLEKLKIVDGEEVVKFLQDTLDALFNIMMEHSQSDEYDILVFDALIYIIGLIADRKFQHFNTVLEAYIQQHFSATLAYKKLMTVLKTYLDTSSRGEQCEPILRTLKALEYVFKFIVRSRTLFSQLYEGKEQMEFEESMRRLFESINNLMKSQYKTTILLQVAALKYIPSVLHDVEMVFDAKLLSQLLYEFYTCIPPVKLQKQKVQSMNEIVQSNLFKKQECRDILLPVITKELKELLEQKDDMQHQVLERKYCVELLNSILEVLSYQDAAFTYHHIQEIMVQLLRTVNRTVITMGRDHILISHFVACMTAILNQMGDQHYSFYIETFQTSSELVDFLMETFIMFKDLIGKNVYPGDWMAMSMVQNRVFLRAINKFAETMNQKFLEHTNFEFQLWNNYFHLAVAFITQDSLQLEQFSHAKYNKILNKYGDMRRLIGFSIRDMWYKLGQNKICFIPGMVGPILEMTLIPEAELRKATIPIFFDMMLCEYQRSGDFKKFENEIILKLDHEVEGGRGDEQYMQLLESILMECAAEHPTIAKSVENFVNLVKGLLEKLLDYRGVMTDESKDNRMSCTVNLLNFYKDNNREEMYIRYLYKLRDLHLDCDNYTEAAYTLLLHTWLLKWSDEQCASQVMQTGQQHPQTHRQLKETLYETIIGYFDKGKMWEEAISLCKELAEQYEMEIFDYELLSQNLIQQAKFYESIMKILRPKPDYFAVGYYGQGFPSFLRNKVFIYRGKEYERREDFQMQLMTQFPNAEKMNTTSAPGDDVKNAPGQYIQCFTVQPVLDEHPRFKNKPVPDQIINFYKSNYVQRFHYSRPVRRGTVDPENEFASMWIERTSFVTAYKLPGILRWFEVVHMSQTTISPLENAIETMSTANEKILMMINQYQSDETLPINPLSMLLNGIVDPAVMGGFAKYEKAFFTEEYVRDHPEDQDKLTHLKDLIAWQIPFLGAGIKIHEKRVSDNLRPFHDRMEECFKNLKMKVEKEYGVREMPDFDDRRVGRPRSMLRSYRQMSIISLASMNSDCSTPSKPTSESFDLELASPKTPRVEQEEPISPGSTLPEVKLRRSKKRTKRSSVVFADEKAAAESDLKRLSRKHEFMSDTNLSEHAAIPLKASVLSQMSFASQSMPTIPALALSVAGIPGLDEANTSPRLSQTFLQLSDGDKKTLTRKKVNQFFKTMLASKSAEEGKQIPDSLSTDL

Experiments:
Test in all cases: affinity purification with mass spectrometry; 20 μg purified GST-Pdlim5 (WT or S177D) immobilised on glutathione-Sepharose beads, incubated at 4 °C for 2 h with lysate of 2 x 10^9 U937 cells (30 mM MOPS pH 7.5, 150 mM NaCl, 0.5% Triton-X100, 1.5 mM MgCl2, 1 mM EGTA, 1 mM DTT); eluted with 500 mM NaCl; shotgun LC-MS; only the target purified
[1] = molecular target: T1, GST-tagged S177D-Pdlim5 (mouse) (UniProt Q8CI51)
T1 sequence: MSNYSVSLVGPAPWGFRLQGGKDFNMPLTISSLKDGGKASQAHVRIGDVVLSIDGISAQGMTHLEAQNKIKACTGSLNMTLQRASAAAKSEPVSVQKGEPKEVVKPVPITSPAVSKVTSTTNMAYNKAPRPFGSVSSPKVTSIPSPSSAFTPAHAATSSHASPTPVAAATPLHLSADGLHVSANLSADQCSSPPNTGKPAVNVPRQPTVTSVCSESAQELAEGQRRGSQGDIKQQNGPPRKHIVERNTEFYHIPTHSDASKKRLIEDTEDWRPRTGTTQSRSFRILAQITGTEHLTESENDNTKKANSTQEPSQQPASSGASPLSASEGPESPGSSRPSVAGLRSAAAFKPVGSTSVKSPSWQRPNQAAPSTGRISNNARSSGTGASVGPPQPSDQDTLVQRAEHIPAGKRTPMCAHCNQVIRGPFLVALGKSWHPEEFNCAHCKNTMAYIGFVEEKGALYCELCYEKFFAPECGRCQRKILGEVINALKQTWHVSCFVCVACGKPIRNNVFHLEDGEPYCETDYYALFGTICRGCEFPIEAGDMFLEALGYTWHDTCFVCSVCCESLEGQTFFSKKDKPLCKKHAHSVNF

[2] = molecular target: T2, GST-tagged WT-Pdlim5 (PDZ and LIM domain 5) (mouse) (UniProt Q8CI51)
T2 sequence: T1 sequence with D177S

[3] = molecular target: T2, GST-tagged WT-Pdlim5 (PDZ and LIM domain 5) (mouse); remark: listed apart in the source

binding [1]: binds
binding [2]: binds
Molecule: dedicator of cytokinesis 2 (from UniProt Q92608 1-1830)

binding [3]: binds
B1: Rho GEF 6 (Arhgef6) (protein, UniProt Q15052 1-776)
chain: MNPEEQIVTWLISLGVLESPKKTICDPEEFLKSSLKNGVVLCKLINRLMPGSVEKFCLDPQTEADCINNINDFLKGCATLQVEIFDPDDLYSGVNFSKVLSTLLAVNKATEDQLSERPCGRSSSLSAANTSQTNPQGAVSSTVSGLQRQSKTVEMTENGSHQLIVKARFNFKQTNEDELSVCKGDIIYVTRVEEGGWWEGTLNGRTGWFPSNYVREIKSSERPLSPKAVKGFETAPLTKNYYTVVLQNILDTEKEYAKELQSLLVTYLRPLQSNNNLSTVEVTSLLGNFEEVCTFQQTLCQALEECSKFPENQHKVGGCLLSLMPHFKSMYLAYCANHPSAVNVLTQHSDELEQFMENQGASSPGILILTTNLSKPFMRLEKYVTLLQELERHMEDTHPDHQDILKAIVAFKTLMGQCQDLRKRKQLELQILSEPIQAWEGEDIKNLGNVIFMSQVMVQYGACEEKEERYLMLFSNVLIMLSASPRMSGFIYQGKIPIAGTVVTRLDEIEGNDCTFEITGNTVERIVVHCNNNQDFQEWLEQLNRLIRGPASCSSLSKTSSSSCSAHSSFSSTGQPRGPLEPPQIIKPWSLSCLRPAPPLRPSAALGYKERMSYILKESSKSPKTMKKFLHKRKTERKPSEEEYVIRKSTAALEEDAQILKVIEAYCTSANFQQGHGSSTRKDSIPQVLLPEEEKLIIEETRSNGQTIMEEKSLVDTVYALKDEVRELKQENKRMKQCLEEELKSRRDLEKLVRRLLKQTDECIRGESSSKTSILP
